Source: patent US20090075929A1
These are yes or no findings as the source states them, for the method shown. Some binding calls cover weakened binding; strength is not graded here.

Molecular target: DR5 (death receptor 5), endogenous in PA-1 cells, O14763
Assay: IP of DR5 from PA-1 lysates, immunoblot for caspase-8
Details: remark: other sources report otherwise

B1: caspase-8 (pro-caspase-8, p55/53), endogenous, Q14790 1-479 (enzyme, UniProt Q14790 1-479, looked up)
chain: MDFSRNLYDIGEQLDSEDLASLKFLSLDYIPQRKQEPIKDALMLFQRLQEKRMLEESNLSFLKELLFRINRLDLLITYLNTRKEEMERELQTPGRAQISAYRVMLYQISEEVSRSELRSFKFLLQEEISKCKLDDDMNLLDIFIEMEKRVILGEGKLDILKRVCAQINKSLLKIINDYEEFSKERSSSLEGSPDEFSNGEELCGVMTISDSPREQDSESQTLDKVYQMKSKPRGYCLIINNHNFAKAREKVPKLHSIRDRNGTHLDAGALTTTFEELHFEIKPHDDCTVEQIYEILKIYQLMDHSNMDCFICCILSHGDKGIIYGTDGQEAPIYELTSQFTGLKCPSLAGKPKVFFIQACQGDNYQKGIPVETDSEEQPYLEMDLSSPQTRYIPDEADFLLGMATVNNCVSYRNPAEGTWYIQSLCQSLRERCPRGDDILTILTEVNYEVSNKDDKKNMGKQMPQPTFTLRKKLVFPSD
In the case of B1, the binding is reported as “binds”.
